{"source": "PubChem BioAssay AID1347075", "about": "(National Center for Advancing Translational Sciences (NCATS), 2019)", "note": "The campaign covered roughly 400,000 compounds. About 5,500 (1.4%) were called active. The shares of active, inactive and inconclusive entries below differ from those in the screen. The call rests on the fitted dose curve; in most records, active means well fitted cell-killing curve with a large enough effect; inconclusive means small, poorly fitted or top-dose-only effect, or effect the other way; inactive means flat fitted curve, though single readings scatter. Potencies of inconclusive entries are doubtful fits and often do not repeat. On the % scale 0 is the no-effect control and ±100 the full control effect; potency means the concentration at half of the fitted maximal effect.", "data": [{"test": "qHTS assay for MDR1-selective chemotherapeutics: Primary screen using the parental adenocarcinoma cell KB-3-1; further: nearly all actives have a fitted effect of over 60% in size", "settings": "KB-3-1 viability, CellTiter-Glo ATP luminescence, 72 h; activity change, negative = cytotoxic: at 46.1 µM (top of the series)", "how_it_was_run": "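KB-3-1 parental drug-naive adenocarcinoma cells in DMEM/10% FBS, incubated 72 h at 37 C with pin-transferred compounds across a concentration series. Viability by CellTiter-Glo luminescence; concentration-response curves fitted after normalization.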", "values": [{"smiles": "COc1ccc(CS(=O)(=O)/C(Cl)=C(/Cl)C(=O)Nc2ccc(OC)nc2)cc1", "Potency": "inconclusive: 2.06 µM [cytotoxic, full curve, poor fit]"}, {"smiles": "O=C(Nc1ccc2ccccc2c1)c1nc(S(=O)(=O)Cc2ccccc2F)ncc1Cl", "activity change, negative = cytotoxic": "inactive: 14.5%"}, {"smiles": "C/C(CC(=O)NCCN1CCOCC1)=N\\NC(=O)c1ccncc1", "activity change, negative = cytotoxic": "inactive: -0.478%"}, {"smiles": "c1ccc(SSc2ccccn2)nc1", "activity change, negative = cytotoxic": "inactive: 1.05%"}, {"smiles": "COc1ccc(COC(=O)C2CCN(S(=O)(=O)c3cccs3)CC2)cc1", "Potency": "inconclusive: 29.1 µM [rising, single point]"}, {"smiles": "COc1ccc(Cc2nnc(NC(=O)c3cccs3)s2)cc1OC", "Potency": "inconclusive: 32.6 µM [cytotoxic, single point]"}, {"smiles": "N=c1c(C(=O)NCc2ccc3c(c2)OCO3)cc2c(=O)n3ccccc3nc2n1CC1CCCO1", "note": "(centres undefined)", "Potency": "inconclusive: 29.1 µM [cytotoxic, single point]"}, {"smiles": "CCOC(=O)C1=CCN(S(=O)(=O)c2ccccc2Cl)C1c1ccc(Cl)c(Cl)c1", "note": "(centres undefined)", "Potency": "inconclusive: 29.1 µM [cytotoxic, single point]"}, {"smiles": "Clc1nnc2ccc(-c3ccccc3)nn12", "Potency": "active: 23.1 µM"}, {"smiles": "Cc1cccc(COCC(Cc2ccccc2)N2CCN(C(=O)c3ccc(Cl)c(Cl)c3)CCC2=O)c1", "note": "(centres undefined)", "Potency": "inconclusive: 29.1 µM [cytotoxic, single point]"}, {"smiles": "CCc1ccccc1NC(=O)Cc1ccc(NC(=O)N2CCCCc3ccccc32)cc1", "activity change, negative = cytotoxic": "inactive: 0%"}, {"smiles": "Nc1nonc1-n1nnc(C(=O)N/N=C/c2ccc(Br)cc2)c1CSC1=NCCS1", "Potency": "inconclusive: 18.4 µM [cytotoxic, partial curve, poor fit]"}, {"smiles": "COc1cc2ccccc2ccc1=NO", "Potency": "inconclusive: 29.1 µM [cytotoxic, single point]"}, {"smiles": "Cc1noc(/C=C/N(C)C)c1S(=O)(=O)N1CCc2ccccc21", "activity change, negative = cytotoxic": "inactive: 32.5%"}, {"smiles": "COc1ccc(N(C(=O)CCl)C(C(=O)NC2CCCCC2)c2cccnc2)cc1", "note": "(centres undefined)", "Potency": "active: 10.3 µM"}, {"smiles": "COc1ccccc1N1CCN(C(CNC(=O)C(=O)NCc2ccc(F)cc2)c2cccnc2)CC1", "note": "(centres undefined)", "Potency": "inconclusive: 29.1 µM [cytotoxic, single point]"}, {"smiles": "O=C(CSc1nc(N2CCCCC2)nc(N2CCCCC2)n1)c1ccccc1", "activity change, negative = cytotoxic": "inactive: -12.4%"}, {"smiles": "Cc1cc(N2C(=O)CCC2=O)n(-c2ccccc2)n1", "Potency": "inconclusive: 0.0116 µM [rising, full curve]"}, {"smiles": "O=C(N/N=C/c1c[nH]c2ccccc12)C1CC1(c1ccccc1)c1ccccc1", "note": "(centres undefined)", "Potency": "inconclusive: 25.9 µM [cytotoxic, single point]"}, {"smiles": "NC(Cc1ccc(Cl)cc1)c1csc(Nc2nccc(C(F)(F)F)n2)n1", "note": "(centres undefined)", "Potency": "inconclusive: 18.4 µM [cytotoxic, single point]"}, {"smiles": "COc1ccc(-c2csc3ncnc(N4CCN(S(=O)(=O)c5ccc(C(C)=O)cc5)CC4)c23)cc1", "Potency": "inconclusive: 23.1 µM [cytotoxic, partial curve, poor fit]"}, {"smiles": "COC(=O)C1=C(C(=O)OC)[C@@H]2N(C)c3ccc(OC)cc3[C@@]23C[C@@H](C(=O)OC)N(C(=O)c2ccc(Br)cc2)C3=N1", "Potency": "inconclusive: 29.1 µM [cytotoxic, single point]"}, {"smiles": "N#Cc1c(Nc2ccccc2C(F)(F)F)s[nH]c1=O", "activity change, negative = cytotoxic": "inactive: -1.96%"}, {"smiles": "O=C(CSc1nnc(COc2ccc(Cl)cc2)o1)N(c1ccccc1)C1CCS(=O)(=O)C1", "note": "(centres undefined)", "Potency": "inconclusive: 29.1 µM [cytotoxic, single point]"}, {"smiles": "Cc1ccc(S(=O)(=O)N(C)Cc2nc(-c3ccccc3)oc2C)cc1", "activity change, negative = cytotoxic": "inactive: 17.3%"}, {"smiles": "NC(=O)c1ccsc1NC(=O)c1nc(-c2ccccc2)n(-c2ccccc2)n1", "Potency": "inconclusive: 29.1 µM [cytotoxic, single point]"}, {"smiles": "COCCNC(=O)c1ccc2c(c1)ncn2-c1cccc(C)c1", "Potency": "inconclusive: 29.1 µM [cytotoxic, single point]"}, {"smiles": "O=C(O)CCCN1C(=O)/C(=C\\c2ccc(-c3nc4ccccc4s3)o2)SC1=S", "activity change, negative = cytotoxic": "inactive: -10.4%"}, {"smiles": "O=C(CSc1nc2ccccc2c(=O)n1-c1ccccc1)NCc1ccco1", "Potency": "inconclusive: 20.6 µM [cytotoxic, single point]"}, {"smiles": "OC(c1cc(F)cc(Cl)c1)c1ncc(-c2cccc(C(F)(F)F)c2)[nH]1", "note": "(centres undefined)", "Potency": "inconclusive: 29.1 µM [cytotoxic, single point]"}, {"smiles": "COc1cc2c(cc1OC)C(C)N(C(=O)c1cc3c(C)cc(C)cc3[nH]1)CC2", "note": "(centres undefined)", "Potency": "inconclusive: 20.6 µM [cytotoxic, single point]"}, {"smiles": "COc1ccc(-c2c(C)nn3c(C(F)(F)F)cc(-c4ccccc4)nc23)cc1", "activity change, negative = cytotoxic": "inactive: 2.59%"}, {"smiles": "COc1ccc(N(CC(=O)Nc2cc(C)ccc2C)S(=O)(=O)c2c(C)noc2C)cc1", "Potency": "inconclusive: 18.4 µM [cytotoxic, single point]"}, {"smiles": "COc1c(OC)c(O)c2c(=O)cc(-c3c(O)cccc3O)oc2c1OC", "Potency": "inconclusive: 16.4 µM [cytotoxic, partial curve, poor fit]"}]}]}
